Laboratory results as given in paper PMC5062614.

What was measured:
[1] = molecular target: T1, NPR4-GFP (expressed in N. benthamiana) (Arabidopsis) (UniProt Q5ICL9); experiment: co-IP; Myc-JAZ1 co-expressed with NPR3-GFP, NPR4-GFP or GFP in N. benthamiana leaves; extract in 50 mM Tris pH 7.5, 150 mM NaCl, 0.1% Triton X-100, 0.2% NP-40, 40 μM MG115; 100 μM SA added; GFP-Trap_A beads 2 h at 4 °C; blot with Myc antibody
T1 sequence: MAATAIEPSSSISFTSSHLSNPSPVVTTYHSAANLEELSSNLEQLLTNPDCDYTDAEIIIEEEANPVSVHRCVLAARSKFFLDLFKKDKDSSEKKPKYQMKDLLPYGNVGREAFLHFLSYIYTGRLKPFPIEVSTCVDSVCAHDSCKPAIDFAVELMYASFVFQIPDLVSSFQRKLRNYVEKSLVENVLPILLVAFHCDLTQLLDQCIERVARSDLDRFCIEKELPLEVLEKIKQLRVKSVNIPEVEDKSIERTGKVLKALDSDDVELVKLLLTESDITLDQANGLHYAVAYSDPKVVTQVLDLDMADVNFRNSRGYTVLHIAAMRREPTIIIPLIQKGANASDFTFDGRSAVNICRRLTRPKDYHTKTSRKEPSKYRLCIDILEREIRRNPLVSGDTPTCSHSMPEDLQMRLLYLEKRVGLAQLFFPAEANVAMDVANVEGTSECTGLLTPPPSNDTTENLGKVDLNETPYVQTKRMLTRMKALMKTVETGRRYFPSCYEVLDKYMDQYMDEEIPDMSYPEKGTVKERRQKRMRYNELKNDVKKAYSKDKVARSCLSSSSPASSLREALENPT

[2] = molecular target: T2, NPR3-GFP (expressed in N. benthamiana) (Arabidopsis) (UniProt Q8L746); experiment: as above
T2 sequence: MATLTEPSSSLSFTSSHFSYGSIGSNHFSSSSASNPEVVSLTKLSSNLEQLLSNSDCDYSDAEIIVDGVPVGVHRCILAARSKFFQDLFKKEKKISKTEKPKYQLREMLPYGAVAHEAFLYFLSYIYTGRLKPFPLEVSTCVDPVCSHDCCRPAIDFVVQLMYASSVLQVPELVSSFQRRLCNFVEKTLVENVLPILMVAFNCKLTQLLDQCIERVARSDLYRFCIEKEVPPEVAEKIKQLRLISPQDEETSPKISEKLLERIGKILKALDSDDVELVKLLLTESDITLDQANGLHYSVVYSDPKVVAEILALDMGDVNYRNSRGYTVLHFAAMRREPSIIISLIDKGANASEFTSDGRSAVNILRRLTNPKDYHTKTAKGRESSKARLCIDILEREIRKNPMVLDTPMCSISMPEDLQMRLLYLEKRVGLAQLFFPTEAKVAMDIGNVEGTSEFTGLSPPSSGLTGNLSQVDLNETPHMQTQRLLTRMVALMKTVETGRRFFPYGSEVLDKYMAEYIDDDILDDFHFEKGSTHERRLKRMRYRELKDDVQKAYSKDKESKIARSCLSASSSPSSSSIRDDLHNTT

NPR4-nLuc (Arabidopsis) = molecular target: T3, NPR4-nLuc (Arabidopsis) (UniProt Q5ICL9); experiment: split reporter; split luciferase; cLuc-JAZ and NPR3-nLuc or NPR4-nLuc transiently co-expressed in N. benthamiana leaves for 2 days; 1 mM luciferin; images 0 and 3 h after 1 mM SA treatment
T3 sequence: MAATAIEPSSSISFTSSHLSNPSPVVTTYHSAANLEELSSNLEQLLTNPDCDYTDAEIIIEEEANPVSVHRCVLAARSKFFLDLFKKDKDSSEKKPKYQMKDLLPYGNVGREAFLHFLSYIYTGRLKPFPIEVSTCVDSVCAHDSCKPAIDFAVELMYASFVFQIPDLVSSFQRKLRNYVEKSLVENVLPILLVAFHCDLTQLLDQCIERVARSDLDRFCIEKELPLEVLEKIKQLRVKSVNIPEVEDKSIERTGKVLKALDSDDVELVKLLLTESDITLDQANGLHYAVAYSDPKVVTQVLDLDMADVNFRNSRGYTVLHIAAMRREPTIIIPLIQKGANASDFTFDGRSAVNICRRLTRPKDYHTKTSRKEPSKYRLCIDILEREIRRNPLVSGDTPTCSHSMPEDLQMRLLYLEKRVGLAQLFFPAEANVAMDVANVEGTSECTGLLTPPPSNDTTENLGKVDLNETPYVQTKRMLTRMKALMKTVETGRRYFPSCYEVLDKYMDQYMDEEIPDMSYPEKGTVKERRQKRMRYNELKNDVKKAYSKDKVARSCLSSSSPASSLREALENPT

NPR3-nLuc (Arabidopsis) = molecular target: T4, NPR3-nLuc (Arabidopsis) (UniProt Q8L746); experiment: as above
T4 sequence: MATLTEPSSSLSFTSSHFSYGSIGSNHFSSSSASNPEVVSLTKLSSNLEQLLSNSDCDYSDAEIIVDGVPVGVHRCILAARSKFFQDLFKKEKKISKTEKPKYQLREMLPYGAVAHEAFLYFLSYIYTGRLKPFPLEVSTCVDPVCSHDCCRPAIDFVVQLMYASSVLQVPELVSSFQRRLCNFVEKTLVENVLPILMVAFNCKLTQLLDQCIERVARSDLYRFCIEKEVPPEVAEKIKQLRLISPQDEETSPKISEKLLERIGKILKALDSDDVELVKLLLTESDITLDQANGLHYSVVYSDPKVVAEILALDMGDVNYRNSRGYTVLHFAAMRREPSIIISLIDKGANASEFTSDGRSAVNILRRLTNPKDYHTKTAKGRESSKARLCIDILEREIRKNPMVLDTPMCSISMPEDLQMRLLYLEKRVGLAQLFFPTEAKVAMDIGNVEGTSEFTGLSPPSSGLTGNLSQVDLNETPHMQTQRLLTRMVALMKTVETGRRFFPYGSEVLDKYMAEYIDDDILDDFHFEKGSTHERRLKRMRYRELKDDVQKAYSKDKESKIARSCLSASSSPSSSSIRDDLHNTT

[3] = molecular target: T5, NPR3 fused with the DNA binding domain (BD) (Arabidopsis) (UniProt Q8L746); experiment: two-hybrid; AD-JAZ (pGADT7, AH109) mated with BD-NPR3 or its derivatives (pGBKT7, Y187); growth on SD-Leu-Trp-His-Ade plates with 100 μM SA
T5 sequence: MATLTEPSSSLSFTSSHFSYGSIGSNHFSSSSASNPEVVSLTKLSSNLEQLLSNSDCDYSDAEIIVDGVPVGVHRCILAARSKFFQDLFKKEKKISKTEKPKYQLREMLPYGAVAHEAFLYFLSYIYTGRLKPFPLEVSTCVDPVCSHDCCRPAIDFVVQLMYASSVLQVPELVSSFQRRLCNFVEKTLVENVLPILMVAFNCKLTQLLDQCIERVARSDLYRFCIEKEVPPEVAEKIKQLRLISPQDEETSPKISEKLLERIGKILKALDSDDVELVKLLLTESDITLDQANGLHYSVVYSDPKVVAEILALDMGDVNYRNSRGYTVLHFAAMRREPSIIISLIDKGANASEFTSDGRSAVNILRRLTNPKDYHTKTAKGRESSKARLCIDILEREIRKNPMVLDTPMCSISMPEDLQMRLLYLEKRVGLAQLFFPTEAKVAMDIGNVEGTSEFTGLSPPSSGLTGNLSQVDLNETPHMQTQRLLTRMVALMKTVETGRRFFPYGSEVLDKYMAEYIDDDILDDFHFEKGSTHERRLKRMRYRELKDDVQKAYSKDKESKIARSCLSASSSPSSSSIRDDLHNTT

[4] = molecular target: T5, NPR3 fused with the DNA binding domain (BD) (Arabidopsis); experiment: two-hybrid; AD-JAZ (pGADT7, AH109) mated with BD-NPR3 or its derivatives (pGBKT7, Y187); growth on SD-Leu-Trp-His-Ade plates without SA
GST-JAZ1 (Arabidopsis) = experiment: pull-down; GST-JAZ1 or GST on Glutathione magnetic beads incubated 2 h at 4 °C with protein extract of NPR3-GFP or NPR4-GFP from NahG N. benthamiana, treated with or without 1 mM SA or 100 μM MeJA 3 h before collection; blot with GFP antibody; only the target purified

**Q.** How did the binding [1] turn out when Myc-JAZ1 (Arabidopsis) was run?
**A.** binds

**Q.** What about the binding [2] of the same molecule?
**A.** binds

**Q.** With “JAZ6 fused with the C-terminal half of luciferase (cLuc) (Arabidopsis)” as the molecule, how does the binding (NPR4-nLuc (Arabidopsis)) read?
**A.** binds

**Q.** And the binding (NPR3-nLuc (Arabidopsis))?
**A.** binds

**Q.** How did the binding [3] turn out when “JAZ5 fused with the transcriptional activation domain (AD) (Arabidopsis)” was run?
**A.** binds

**Q.** What about the binding [4] of the same molecule?
**A.** no binding (only without SA in the yeast medium)

B1: NPR3-GFP (expressed in N. benthamiana) (protein, UniProt Q8L746 1-586)
chain: MATLTEPSSSLSFTSSHFSYGSIGSNHFSSSSASNPEVVSLTKLSSNLEQLLSNSDCDYSDAEIIVDGVPVGVHRCILAARSKFFQDLFKKEKKISKTEKPKYQLREMLPYGAVAHEAFLYFLSYIYTGRLKPFPLEVSTCVDPVCSHDCCRPAIDFVVQLMYASSVLQVPELVSSFQRRLCNFVEKTLVENVLPILMVAFNCKLTQLLDQCIERVARSDLYRFCIEKEVPPEVAEKIKQLRLISPQDEETSPKISEKLLERIGKILKALDSDDVELVKLLLTESDITLDQANGLHYSVVYSDPKVVAEILALDMGDVNYRNSRGYTVLHFAAMRREPSIIISLIDKGANASEFTSDGRSAVNILRRLTNPKDYHTKTAKGRESSKARLCIDILEREIRKNPMVLDTPMCSISMPEDLQMRLLYLEKRVGLAQLFFPTEAKVAMDIGNVEGTSEFTGLSPPSSGLTGNLSQVDLNETPHMQTQRLLTRMVALMKTVETGRRFFPYGSEVLDKYMAEYIDDDILDDFHFEKGSTHERRLKRMRYRELKDDVQKAYSKDKESKIARSCLSASSSPSSSSIRDDLHNTT
**Q.** For B1, which binding (GST-JAZ1 (Arabidopsis)) is on record?
**A.** binds

B2: NPR4-GFP (expressed in N. benthamiana) (protein, UniProt Q5ICL9 1-574)
chain: MAATAIEPSSSISFTSSHLSNPSPVVTTYHSAANLEELSSNLEQLLTNPDCDYTDAEIIIEEEANPVSVHRCVLAARSKFFLDLFKKDKDSSEKKPKYQMKDLLPYGNVGREAFLHFLSYIYTGRLKPFPIEVSTCVDSVCAHDSCKPAIDFAVELMYASFVFQIPDLVSSFQRKLRNYVEKSLVENVLPILLVAFHCDLTQLLDQCIERVARSDLDRFCIEKELPLEVLEKIKQLRVKSVNIPEVEDKSIERTGKVLKALDSDDVELVKLLLTESDITLDQANGLHYAVAYSDPKVVTQVLDLDMADVNFRNSRGYTVLHIAAMRREPTIIIPLIQKGANASDFTFDGRSAVNICRRLTRPKDYHTKTSRKEPSKYRLCIDILEREIRRNPLVSGDTPTCSHSMPEDLQMRLLYLEKRVGLAQLFFPAEANVAMDVANVEGTSECTGLLTPPPSNDTTENLGKVDLNETPYVQTKRMLTRMKALMKTVETGRRYFPSCYEVLDKYMDQYMDEEIPDMSYPEKGTVKERRQKRMRYNELKNDVKKAYSKDKVARSCLSSSSPASSLREALENPT
**Q.** Which binding (GST-JAZ1 (Arabidopsis)) does the source give for B2 here?
**A.** binds

These are yes or no findings as the source states them, for the method shown. For some assays here: Binding calls can cover weak binding; strength is not graded here. Where a sequence is shown, tags or fusion partners need not be part of it. For some assays here: In cells and extracts the contact can be indirect.
